Test results: patent US20120009190A1 (Amgen, published 2012)
These are yes or no findings as the source states them, for the method shown. Some binding calls cover weakened binding; strength is not graded here. For some of these results: Tags and fused reporters may be left off the sequences shown. One block for each molecule: values may come before it.

The chains behind the UniProt entries cited, without tags or fusion partners. Where a name states a change or a piece, a line headed by the entry shows the natural chain unless it says otherwise. A line that says so, or that is headed by a name, gives the form on record, which may keep a tag or linker.
huIL-17.Fc (huIL17 with N-terminal flag and huFC (IgG1)) (Q16552, form named): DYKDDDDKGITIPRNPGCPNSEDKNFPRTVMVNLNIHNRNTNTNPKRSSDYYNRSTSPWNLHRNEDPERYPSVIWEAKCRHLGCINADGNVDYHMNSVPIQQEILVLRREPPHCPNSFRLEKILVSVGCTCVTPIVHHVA

Tests used:
[1] = molecular target: IL-17RAΔFN2linker/CFP (FN2/linker region, residues 152-525, fused to CFP), expressed in HEK293 cells (murine) (UniProt Q60943); assay: flow cytometry, huIL-17.Fc staining
[2] = molecular target: IL-17RAΔFN2linker/CFP (FN2/linker region, residues 152-525, fused to CFP), expressed in HEK293 cells (murine) (UniProt Q60943); assay: flow cytometry, huIL-17.Fc then anti-Fc-APC, endogenous human IL-17RA blocked
[3] = molecular target: IL-17RAΔFN2linker/CFP (FN2/linker region, residues 152-525, fused to CFP), expressed in HEK293 cells (murine) (UniProt Q60943); assay: flow cytometry, huIL-17.Fc then anti-huIgG-APC, endogenous human IL-17RA blocked with M202
[4] = molecular target: IL-17RAΔ/YFP (complete IL-17RA ECD and transmembrane domain, cytoplasmic tail truncated at residue 525, fused to YFP), expressed in HEK293 cells (murine) (UniProt Q60943); assay: FRET in HEK293 cells, no ligand
[5] = molecular target: IL-17RAΔFN2linker/YFP (FN2/linker region, residues 152-525, fused to YFP), expressed in HEK293 cells (murine) (UniProt Q60943); assay: FRET in HEK293 cells, no ligand
[6] = molecular target: IL-17RAΔFN2linker/YFP (FN2/linker region, residues 152-525, fused to YFP), expressed in HEK293 cells (murine) (UniProt Q60943); assay: FRET in HEK293 cells

binding [1]: binds
binding [2]: binds
binding [3]: binds
Molecule: huIL-17.Fc (huIL17 with N-terminal flag and huFC (IgG1)) (from UniProt Q16552 24-155) (Fc fusion)

binding [4]: binds
binding [5]: binds
B1: IL-17RAΔ/CFP (complete IL-17RA ECD and transmembrane domain, cytoplasmic tail truncated at residue 525, fused to CFP), expressed in HEK293 cells (receptor, not shown: large carriers)
chain: SPRLLDFPAPVCAQEGLSCRVKNSTCLDDSWIHPKNLTPSSPKNIYINLSVSSTQHGELVPVLHVEWTLQTDASILYLEGAELSVLQLNTNERLCVKFQFLSMLQHHRKRWRFSFSHFVVDPGQEYEVTVHHLPKPIPDGDPNHKSKIIFVPDCEDSKMKMTTSCVSSGSLWDPNITVETLDTQHLRVDFTLWNESTPYQVLLESFSDSENHSCFDVVKQIFAPRQEEFHQRANVTFTLSKFHWCCHHHVQVQPFFSSCLNDCLRHAVTVPCPVISNTTVPKPVADYIPLWVYGLITLIAILLVGSVIVLIICMTWRLSGADQEKHGDDSKINGILPVADLTPPPLRPRKVWIVYSADHPLYVEVVLKFAQFLITACGTEVALDLLEEQVISEVGVMTWVSRQKQEMVESNSKIIILCSRGTQAKWKAILGWAEPAVQLRCDHWKPAGDLFTAAMNMILPDFKRPACFGTYVVCYFSGICSERDVPDLFNITSRYPLMDRFEEVYFRIQDLEMFEPGRMHHVREL

binding [6]: binds
binding [5]: binds
B2: IL-17RAΔFN2linker/CFP (FN2/linker region, residues 152-525, fused to CFP), expressed in HEK293 cells (receptor, not shown: large carriers)
chain: PDCEDSKMKMTTSCVSSGSLWDPNITVETLDTQHLRVDFTLWNESTPYQVLLESFSDSENHSCFDVVKQIFAPRQEEFHQRANVTFTLSKFHWCCHHHVQVQPFFSSCLNDCLRHAVTVPCPVISNTTVPKPVADYIPLWVYGLITLIAILLVGSVIVLIICMTWRLSGADQEKHGDDSKINGILPVADLTPPPLRPRKVWIVYSADHPLYVEVVLKFAQFLITACGTEVALDLLEEQVISEVGVMTWVSRQKQEMVESNSKIIILCSRGTQAKWKAILGWAEPAVQLRCDHWKPAGDLFTAAMNMILPDFKRPACFGTYVVCYFSGICSERDVPDLFNITSRYPLMDRFEEVYFRIQDLEMFEPGRMHHVREL
